According to PMC3002266:
No constants are given. Whether binding was seen depends on the method and setting. For some assays here: Binding seen in cells or lysates may run through a third protein. Sequences can lack the tags named with a protein.

Chains of the proteins cited; added tags and fusions are not shown. Lines headed by an entry give the natural chain unless they say otherwise; changes in a name come on top.
UniProt Q9H3S7: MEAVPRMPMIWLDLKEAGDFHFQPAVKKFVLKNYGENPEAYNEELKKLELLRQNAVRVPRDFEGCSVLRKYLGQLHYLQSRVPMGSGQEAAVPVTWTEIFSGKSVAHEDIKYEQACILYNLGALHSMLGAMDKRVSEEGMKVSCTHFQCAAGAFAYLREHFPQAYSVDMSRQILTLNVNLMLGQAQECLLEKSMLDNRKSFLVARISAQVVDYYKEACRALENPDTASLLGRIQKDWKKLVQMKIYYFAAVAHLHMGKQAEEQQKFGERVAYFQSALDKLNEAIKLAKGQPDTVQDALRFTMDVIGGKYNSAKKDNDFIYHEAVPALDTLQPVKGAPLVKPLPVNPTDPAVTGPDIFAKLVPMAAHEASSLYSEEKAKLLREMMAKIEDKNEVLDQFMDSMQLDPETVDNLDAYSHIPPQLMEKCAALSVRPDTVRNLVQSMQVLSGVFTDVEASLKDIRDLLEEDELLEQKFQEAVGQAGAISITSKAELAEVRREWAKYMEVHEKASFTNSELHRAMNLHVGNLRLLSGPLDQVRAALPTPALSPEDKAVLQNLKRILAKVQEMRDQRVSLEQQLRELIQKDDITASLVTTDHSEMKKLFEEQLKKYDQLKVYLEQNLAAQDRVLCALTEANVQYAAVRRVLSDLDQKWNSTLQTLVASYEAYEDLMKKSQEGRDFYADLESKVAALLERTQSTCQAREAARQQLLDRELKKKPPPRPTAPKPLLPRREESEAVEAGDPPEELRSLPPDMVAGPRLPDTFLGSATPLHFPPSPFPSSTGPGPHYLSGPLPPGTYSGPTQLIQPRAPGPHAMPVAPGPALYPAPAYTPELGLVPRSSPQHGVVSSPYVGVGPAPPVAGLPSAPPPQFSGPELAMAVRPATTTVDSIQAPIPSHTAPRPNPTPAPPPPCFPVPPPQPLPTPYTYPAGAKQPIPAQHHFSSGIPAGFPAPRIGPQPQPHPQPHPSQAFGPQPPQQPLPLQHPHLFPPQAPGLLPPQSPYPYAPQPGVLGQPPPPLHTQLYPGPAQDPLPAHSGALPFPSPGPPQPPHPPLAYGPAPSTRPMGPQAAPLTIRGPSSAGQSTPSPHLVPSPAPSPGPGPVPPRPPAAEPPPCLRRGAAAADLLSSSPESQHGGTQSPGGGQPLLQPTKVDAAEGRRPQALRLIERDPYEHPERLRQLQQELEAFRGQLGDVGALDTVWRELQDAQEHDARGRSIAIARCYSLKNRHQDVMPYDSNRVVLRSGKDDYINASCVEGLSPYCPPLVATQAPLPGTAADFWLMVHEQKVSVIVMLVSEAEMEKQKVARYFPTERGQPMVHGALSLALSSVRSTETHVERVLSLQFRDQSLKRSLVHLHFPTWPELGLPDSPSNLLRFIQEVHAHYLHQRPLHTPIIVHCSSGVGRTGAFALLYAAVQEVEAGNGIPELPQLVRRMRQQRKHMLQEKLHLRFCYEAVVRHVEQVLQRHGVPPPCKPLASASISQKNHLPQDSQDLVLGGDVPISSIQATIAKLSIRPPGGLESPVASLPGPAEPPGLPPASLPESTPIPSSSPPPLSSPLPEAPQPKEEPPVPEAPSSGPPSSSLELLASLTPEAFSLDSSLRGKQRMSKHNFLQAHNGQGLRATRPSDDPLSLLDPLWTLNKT

T1: GST-GrpL (UniProt O75791)
T1 sequence: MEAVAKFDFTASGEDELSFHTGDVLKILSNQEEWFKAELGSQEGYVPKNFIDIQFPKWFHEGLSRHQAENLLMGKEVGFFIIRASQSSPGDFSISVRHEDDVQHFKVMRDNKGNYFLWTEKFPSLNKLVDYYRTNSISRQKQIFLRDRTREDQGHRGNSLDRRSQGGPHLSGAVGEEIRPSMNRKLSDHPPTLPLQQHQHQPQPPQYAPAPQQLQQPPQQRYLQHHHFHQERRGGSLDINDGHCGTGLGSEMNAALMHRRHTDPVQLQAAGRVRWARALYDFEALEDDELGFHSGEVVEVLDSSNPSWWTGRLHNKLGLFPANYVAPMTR


Assays:
GST-GrpL = target: T1, GST-GrpL; test: pull-down; GST, GST-Grb2 or GST-GrpL pre-adsorbed to glutathione-Sepharose beads, incubated 1 h at 4°C with lysates of transfected HEK293T cells (NP-40 lysis buffer, 150 mM NaCl, pH 8.0); five washes; Western blot with anti-GFP; only the target purified
[1] = target: EGFP-ΔHD (1-704 joined to 1221-1636 by Glu-Phe) (human) (UniProt Q9H3S7); test: far-Western, overlay or dot blot; lysates of HEK293T cells expressing HD-PTP mutants separated by SDS-PAGE and blotted on PVDF; overlay with 50 ng/ml GST-Grb2 or 100 ng/ml GST-GrpL overnight at 4°C; detected with anti-GST; only the binder purified

Molecule	binding (GST-GrpL)	binding [1]
EGFP-ΔHD (1-704 joined to 1221-1636 by Glu-Phe) (from UniProt Q9H3S7) (domain or fragment)	no binding	–
GST-GrpL (protein, UniProt O75791 1-330) MEAVAKFDFTASGEDELSFHTGDVLKILSNQEEWFKAELGSQEGYVPKNFIDIQFPKWFHEGLSRHQAENLLMGKEVGFFIIRASQSSPGDFSISVRHEDDVQHFKVMRDNKGNYFLWTEKFPSLNKLVDYYRTNSISRQKQIFLRDRTREDQGHRGNSLDRRSQGGPHLSGAVGEEIRPSMNRKLSDHPPTLPLQQHQHQPQPPQYAPAPQQLQQPPQQRYLQHHHFHQERRGGSLDINDGHCGTGLGSEMNAALMHRRHTDPVQLQAAGRVRWARALYDFEALEDDELGFHSGEVVEVLDSSNPSWWTGRLHNKLGLFPANYVAPMTR	–	no binding (tested: 100 ng/ml GST-GrpL)
